For at least one compound, name, drawing or mass did not settle the structure.
System: beta cells derived from 2.038AT4 cells
Test: C-peptide release assay (glucose responsiveness) of end-stage beta cells
Format: cell-based, human
Conditions: Dox induced cultures
Method: C-peptide release assays were performed as previously described (D'Amour et al., 2006) using a Mercodia Ultrasensitive C-peptide ELISA kit (Mercodia). Briefly, aggregates that were beyond day 25 in the beta cell differentiation protocol from each iPSC clone were placed in a millicell PCF insert within a 24 well plate. The aggregates were equilibrated in 1 ml KRBH medium for one hour at 37° C. and 5% CO2, 20% O2. The aggregates were next placed in a second well containing 0.5 ml KRBH medium supplemented with serially increasing levels of glucose from 1-20 mM. Each incubation lasted for 20 mins at 37° C. and 5% CO2, 20% O2. Extreme care was taken to drain the aggregates of all residual fluid between well transfers. The supernatant left behind was collected and stored at −20° C. At the end of the experiment the aggregates were digested with TryPLE and the total viable cell count per sample was determined to normalize the data. C-peptide secretion was normalized based on the total viable cell number taken for each sample.
C-peptide release assays were performed as described in Example 12. Beta cell cultures induced with Dox induction between days 10-15 generated a response to between 1-5 mM glucose (FIG. 28). […]
The experiment was performed again with the addition of Dox (1.5 μg/ml) between day 10-15 of beta cell differentiation. […] Glucagon expression was not recorded. […]

C[C@H]1c2cccc(O)c2C(=O)C2=C(O)[C@]3(O)C(=O)C(C(N)=O)=C(O)[C@@H](N(C)C)[C@@H]3[C@@H](O)[C@@H]21 [Dox, Doxycycline]
Cell number versus uninduced conditions: greater
